Tests used:
Human mTOR = Human mTOR (Homo sapiens, UniProt P42345); assay: mTOR kinase assay (DELFIA format, purified enzyme); assay type: biochemical; set-up: FLAG; details: read-out: TOR Kinase IC50
human SMG-1 (hSMG-1) = human SMG-1 (hSMG-1) (Homo sapiens, UniProt Q96Q15); assay: hSMG-1 kinase assay (DELFIA); assay type: biochemical; details: read-out: hSMG1 IC50

An IC50 (Human mTOR) of 13.8 µM and an IC50 (human SMG-1 (hSMG-1)) of over 20 µM were found for `Cn1ccc2c3nc(-c4ccc(NC(=O)NCCC5=CCCCC5)cc4)nc(N4CCOCC4)c3ccc21` [Example 103, 1-(2-cyclohex-1-en-1-ylethyl)-3-[4-(7-methyl-4-morpholin-4-yl-7H-pyrrolo[2,3-h]quinazolin-2-yl)phenyl]urea] in this work.

From patent publication US20090227575A1, “7H-PYRROLO[2,3-H]QUINAZOLINE COMPOUNDS, THEIR USE AS mTOR KINASE AND PI3 KINASE INHIBITORS, AND THEIR [sequence]” (Wyeth, priority 2008, published 2009)
